In the supplement of paper PMC10849652:
Some of the results follow.

Chains of the proteins cited; added tags and fusions are not shown. Lines headed by an entry give the natural chain unless they say otherwise; changes in a name come on top.
UniProt P11171, whole entry, looked up: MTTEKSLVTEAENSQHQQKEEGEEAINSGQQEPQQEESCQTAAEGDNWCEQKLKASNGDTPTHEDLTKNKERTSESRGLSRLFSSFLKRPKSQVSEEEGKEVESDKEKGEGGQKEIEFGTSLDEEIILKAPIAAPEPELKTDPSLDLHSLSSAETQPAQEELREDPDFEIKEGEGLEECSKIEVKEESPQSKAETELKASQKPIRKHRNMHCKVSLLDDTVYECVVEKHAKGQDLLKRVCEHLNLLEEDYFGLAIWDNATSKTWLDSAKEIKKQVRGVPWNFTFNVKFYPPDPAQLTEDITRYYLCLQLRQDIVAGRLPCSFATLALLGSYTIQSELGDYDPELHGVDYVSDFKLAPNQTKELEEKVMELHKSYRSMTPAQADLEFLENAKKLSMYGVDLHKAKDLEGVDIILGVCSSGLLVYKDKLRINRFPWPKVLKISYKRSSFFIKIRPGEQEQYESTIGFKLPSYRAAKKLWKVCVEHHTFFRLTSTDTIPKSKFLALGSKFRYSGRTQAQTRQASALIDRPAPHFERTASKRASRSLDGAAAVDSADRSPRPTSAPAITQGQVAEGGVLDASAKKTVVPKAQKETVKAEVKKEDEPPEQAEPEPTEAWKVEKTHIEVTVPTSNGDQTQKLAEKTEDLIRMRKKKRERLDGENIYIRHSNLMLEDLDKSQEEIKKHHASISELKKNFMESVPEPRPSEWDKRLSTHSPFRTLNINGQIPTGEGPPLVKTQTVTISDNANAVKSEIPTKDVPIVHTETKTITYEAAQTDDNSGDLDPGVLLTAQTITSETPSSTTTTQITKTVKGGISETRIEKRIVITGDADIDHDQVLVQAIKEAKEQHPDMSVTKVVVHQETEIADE
UniProt Q13347, whole entry, looked up: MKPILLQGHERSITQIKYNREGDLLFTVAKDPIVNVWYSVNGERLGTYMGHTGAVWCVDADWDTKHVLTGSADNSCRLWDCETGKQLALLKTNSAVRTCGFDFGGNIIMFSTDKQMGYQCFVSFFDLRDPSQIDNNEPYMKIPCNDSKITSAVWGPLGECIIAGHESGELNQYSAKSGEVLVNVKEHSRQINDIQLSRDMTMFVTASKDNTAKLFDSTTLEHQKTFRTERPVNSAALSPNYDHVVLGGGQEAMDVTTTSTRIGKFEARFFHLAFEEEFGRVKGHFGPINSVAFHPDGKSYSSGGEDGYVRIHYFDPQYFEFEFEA
UniProt Q53HC9: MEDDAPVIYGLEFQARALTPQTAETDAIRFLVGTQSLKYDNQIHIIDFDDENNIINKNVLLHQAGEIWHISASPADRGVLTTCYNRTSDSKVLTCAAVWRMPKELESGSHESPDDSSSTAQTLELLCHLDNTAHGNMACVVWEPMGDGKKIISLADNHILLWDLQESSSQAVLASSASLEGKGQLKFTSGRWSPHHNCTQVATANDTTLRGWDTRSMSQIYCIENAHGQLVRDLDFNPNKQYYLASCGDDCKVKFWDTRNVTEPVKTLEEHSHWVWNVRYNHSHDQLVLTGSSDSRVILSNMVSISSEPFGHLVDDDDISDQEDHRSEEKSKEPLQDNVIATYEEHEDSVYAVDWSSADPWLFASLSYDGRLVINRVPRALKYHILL
UniProt P05198, whole entry, looked up: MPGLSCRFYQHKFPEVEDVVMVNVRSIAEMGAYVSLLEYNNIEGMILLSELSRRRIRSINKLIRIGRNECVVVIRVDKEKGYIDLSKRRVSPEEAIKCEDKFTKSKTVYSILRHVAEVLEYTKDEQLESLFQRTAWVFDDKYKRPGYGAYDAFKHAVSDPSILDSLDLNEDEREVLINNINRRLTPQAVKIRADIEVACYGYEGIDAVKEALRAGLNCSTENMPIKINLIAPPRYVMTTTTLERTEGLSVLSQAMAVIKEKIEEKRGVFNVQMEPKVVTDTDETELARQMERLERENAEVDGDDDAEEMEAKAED
UniProt P60228, whole entry, looked up: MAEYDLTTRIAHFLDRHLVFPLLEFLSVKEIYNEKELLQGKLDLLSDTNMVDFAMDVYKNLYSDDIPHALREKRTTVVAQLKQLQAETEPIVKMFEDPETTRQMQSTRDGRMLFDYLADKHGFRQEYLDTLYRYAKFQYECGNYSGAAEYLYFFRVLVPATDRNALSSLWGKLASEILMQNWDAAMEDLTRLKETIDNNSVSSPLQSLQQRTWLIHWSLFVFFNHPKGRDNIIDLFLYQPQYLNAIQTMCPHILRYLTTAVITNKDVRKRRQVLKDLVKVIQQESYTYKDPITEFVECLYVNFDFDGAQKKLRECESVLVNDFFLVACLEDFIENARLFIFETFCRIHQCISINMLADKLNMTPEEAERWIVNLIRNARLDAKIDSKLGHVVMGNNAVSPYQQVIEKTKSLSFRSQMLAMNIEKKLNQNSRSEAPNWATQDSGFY
UniProt Q9UBQ5, whole entry, looked up: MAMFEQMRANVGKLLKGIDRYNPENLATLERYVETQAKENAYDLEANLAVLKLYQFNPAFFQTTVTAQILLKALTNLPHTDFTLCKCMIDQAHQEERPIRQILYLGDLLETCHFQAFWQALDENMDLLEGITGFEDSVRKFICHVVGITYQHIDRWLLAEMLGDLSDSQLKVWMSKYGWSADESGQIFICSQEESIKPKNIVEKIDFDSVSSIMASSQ
UniProt Q13144, whole entry, looked up: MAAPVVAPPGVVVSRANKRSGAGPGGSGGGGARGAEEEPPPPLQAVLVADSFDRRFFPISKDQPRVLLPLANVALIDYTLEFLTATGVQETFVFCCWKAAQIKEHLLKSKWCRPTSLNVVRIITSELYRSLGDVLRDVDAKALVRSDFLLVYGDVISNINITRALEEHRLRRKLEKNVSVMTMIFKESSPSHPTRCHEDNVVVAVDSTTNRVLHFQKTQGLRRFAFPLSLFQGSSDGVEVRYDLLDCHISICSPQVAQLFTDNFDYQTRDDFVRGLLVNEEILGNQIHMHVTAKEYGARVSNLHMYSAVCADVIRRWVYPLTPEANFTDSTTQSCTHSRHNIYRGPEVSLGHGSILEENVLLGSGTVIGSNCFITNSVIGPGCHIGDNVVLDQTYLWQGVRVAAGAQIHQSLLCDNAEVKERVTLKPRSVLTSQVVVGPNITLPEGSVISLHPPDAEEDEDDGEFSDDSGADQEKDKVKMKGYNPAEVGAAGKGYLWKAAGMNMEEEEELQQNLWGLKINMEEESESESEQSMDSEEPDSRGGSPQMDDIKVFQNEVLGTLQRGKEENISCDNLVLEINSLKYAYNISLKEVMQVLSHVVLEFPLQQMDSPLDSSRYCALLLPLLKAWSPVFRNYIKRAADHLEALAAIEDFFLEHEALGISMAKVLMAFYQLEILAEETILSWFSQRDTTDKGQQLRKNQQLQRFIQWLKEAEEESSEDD
UniProt Q96EB1: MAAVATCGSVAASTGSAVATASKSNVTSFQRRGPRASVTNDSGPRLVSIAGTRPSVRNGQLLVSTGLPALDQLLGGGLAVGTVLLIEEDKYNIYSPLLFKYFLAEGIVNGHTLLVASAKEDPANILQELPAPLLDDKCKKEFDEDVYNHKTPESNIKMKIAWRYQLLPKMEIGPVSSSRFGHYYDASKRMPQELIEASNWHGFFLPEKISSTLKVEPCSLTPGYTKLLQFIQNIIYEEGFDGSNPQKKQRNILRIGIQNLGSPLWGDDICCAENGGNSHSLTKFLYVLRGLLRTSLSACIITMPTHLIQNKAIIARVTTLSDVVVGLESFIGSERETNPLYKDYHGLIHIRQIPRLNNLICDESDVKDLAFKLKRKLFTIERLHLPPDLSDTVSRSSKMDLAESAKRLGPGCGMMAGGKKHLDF
UniProt P78344: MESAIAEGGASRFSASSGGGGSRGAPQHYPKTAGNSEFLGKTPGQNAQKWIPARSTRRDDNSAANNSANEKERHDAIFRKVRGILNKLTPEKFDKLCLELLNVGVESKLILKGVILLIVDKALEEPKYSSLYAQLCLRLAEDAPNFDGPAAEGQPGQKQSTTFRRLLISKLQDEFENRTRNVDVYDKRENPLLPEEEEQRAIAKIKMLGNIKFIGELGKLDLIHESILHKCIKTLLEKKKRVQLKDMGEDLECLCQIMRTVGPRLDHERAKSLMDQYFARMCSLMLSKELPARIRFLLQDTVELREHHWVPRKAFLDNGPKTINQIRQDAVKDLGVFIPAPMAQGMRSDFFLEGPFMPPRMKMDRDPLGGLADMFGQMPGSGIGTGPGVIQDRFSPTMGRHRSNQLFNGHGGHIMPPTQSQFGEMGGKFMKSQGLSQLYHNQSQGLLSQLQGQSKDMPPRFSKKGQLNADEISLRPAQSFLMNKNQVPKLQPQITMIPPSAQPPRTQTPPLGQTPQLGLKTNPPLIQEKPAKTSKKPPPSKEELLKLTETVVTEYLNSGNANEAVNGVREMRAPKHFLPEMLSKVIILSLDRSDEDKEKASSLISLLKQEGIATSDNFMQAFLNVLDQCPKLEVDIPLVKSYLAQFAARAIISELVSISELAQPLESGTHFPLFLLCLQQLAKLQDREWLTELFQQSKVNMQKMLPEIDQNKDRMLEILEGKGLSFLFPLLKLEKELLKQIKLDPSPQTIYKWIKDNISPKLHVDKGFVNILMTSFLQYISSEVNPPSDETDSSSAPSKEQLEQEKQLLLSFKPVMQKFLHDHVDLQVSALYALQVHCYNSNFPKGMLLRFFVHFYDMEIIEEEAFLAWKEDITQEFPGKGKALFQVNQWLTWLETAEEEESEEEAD
UniProt O15371, whole entry, looked up: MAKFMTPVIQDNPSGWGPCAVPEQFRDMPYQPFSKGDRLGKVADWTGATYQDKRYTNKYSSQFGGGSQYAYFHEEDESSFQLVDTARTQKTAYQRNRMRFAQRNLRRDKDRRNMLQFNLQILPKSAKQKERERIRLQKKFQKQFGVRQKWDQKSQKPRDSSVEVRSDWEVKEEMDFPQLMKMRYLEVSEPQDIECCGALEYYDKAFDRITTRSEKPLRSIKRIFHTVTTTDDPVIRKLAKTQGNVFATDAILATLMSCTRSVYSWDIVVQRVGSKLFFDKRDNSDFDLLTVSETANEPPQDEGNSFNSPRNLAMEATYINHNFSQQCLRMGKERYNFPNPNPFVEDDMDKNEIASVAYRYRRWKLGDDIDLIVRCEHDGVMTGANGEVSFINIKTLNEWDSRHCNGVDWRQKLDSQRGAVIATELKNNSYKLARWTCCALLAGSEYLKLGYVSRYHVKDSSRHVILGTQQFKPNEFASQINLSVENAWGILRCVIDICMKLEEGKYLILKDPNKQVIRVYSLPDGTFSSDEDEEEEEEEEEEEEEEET
UniProt Q13541: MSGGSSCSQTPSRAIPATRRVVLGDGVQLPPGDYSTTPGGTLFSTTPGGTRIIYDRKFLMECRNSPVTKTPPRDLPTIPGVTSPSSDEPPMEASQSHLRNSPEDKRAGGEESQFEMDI
UniProt Q9UI10, whole entry, looked up: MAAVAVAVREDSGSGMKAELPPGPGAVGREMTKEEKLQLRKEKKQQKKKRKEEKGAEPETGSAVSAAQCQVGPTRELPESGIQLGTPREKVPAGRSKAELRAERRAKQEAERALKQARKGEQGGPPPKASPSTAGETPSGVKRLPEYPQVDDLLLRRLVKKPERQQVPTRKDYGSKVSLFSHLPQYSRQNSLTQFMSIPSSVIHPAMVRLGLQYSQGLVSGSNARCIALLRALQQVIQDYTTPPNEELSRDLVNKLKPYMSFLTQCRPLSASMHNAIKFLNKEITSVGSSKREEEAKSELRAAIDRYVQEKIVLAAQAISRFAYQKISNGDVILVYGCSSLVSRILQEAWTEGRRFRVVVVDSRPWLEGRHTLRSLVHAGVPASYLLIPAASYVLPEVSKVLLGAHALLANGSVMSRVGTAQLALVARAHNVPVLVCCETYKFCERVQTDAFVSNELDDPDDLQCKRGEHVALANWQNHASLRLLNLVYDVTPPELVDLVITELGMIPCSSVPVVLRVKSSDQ
UniProt Q13542: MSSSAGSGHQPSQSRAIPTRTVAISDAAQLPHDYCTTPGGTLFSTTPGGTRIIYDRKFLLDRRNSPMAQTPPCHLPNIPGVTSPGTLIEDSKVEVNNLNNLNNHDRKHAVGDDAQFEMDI
UniProt P23588, whole entry, looked up: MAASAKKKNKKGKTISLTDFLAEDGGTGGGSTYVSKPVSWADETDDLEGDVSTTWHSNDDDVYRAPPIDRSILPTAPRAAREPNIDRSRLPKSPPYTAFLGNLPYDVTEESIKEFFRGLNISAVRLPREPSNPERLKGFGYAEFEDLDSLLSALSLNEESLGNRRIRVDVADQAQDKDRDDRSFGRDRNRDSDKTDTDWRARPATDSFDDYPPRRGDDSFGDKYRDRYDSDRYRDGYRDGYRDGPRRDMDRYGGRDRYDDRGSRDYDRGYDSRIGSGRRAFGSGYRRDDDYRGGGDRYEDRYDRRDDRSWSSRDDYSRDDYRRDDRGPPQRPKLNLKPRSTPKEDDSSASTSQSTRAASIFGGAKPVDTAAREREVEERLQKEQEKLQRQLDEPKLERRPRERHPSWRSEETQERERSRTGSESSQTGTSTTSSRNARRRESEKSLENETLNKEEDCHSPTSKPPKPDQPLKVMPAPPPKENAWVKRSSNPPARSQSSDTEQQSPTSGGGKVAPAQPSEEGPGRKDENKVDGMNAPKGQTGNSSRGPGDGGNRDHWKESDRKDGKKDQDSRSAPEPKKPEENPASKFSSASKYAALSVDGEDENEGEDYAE

Assays:
Experiment in all cases: log2 fold change, soluble protein after heating vs DMSO (PISA); higher = thermal stabilisation; K562 cells, 10 uM, 30 min; active = over 0.2 and 3.5 SD of the protein, either way, in both replicates (recomputed)
[1] = compound: COC1=CC=C(C=C1)CN2C=CC3=C2C=C(C=C3)C(=O)NO
Method in brief: (§1)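 Thermal stability values are relative to control samples and come from duplicates. They are expressed as log2 fold changes. For measurement, K562 cells (2×10^6 cells/mL) received 10 μM compound for 30 min, and aliquots were heated for 3 min over 48°C-58°C, pooled, and extracted at 4°C in PBS with 0.5% NP-40. Soluble protein, the supernatant after 21,000xg for 90 min, was quantified by TMTpro 16plex LC-MS/MS with equalised channel sums.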

[2] = compound: CON(C)C(=O)N1N=C(c2cc(F)ccc2F)S[C@@]1(CCCN)c1ccccc1 [filanesib]
Method in brief: as §1

[3] = compound: CO[C@H]1C[C@@H]2CC[C@@H](C)[C@@](O)(O2)C(=O)C(=O)N2CCCC[C@H]2C(=O)O[C@H]([C@H](C)C[C@@H]2CC[C@H](n3cnnn3)[C@H](OC)C2)CC(=O)[C@H](C)/C=C(\C)[C@@H](O)[C@@H](OC)C(=O)[C@H](C)C[C@H](C)/C=C/C=C/C=C/1C [zotarolimus]
Method in brief: as §1

[4] = compound: COc1cc(C(=O)O)ccc1NC(=O)[C@@H]1N[C@@H](CC(C)(C)C)[C@](C#N)(c2ccc(Cl)cc2F)[C@H]1c1cccc(Cl)c1F [idasanutlin]
Method in brief: as §1

[5] = compound: COc1cc(Nc2ncc3c(n2)-c2ccc(Cl)cc2C(c2c(F)cccc2OC)=NC3)ccc1C(=O)O [alisertib]
Method in brief: as §1

[6] = compound: COc1cc2nc(-c3cc(F)ccc3O)nc(N[C@@H]3CNC[C@H]3C(C)(C)O)c2cc1OC
Method in brief: as §1

[7] = compound: COc1cc2ncnc(Nc3ccc(F)c(Cl)c3)c2cc1OCCCN1CCOCC1 [gefitinib]
Method in brief: as §1

[8] = compound: COc1cccc2cc(-c3nc([C@H]4CC[C@H](C(=O)O)CC4)n4ncnc(N)c34)[nH]c12
Method in brief: as §1

[9] = compound: CS(=O)(=O)CCNCc1ccc(-c2ccc3ncnc(Nc4ccc(OCc5cccc(F)c5)c(Cl)c4)c3c2)o1 [lapatinib]
Method in brief: as §1

[10] = compound: CS(=O)(=O)N1CCN(Cc2cc3nc(-c4cccc5[nH]ncc45)nc(N4CCOCC4)c3s2)CC1 [pictilisib]
Method in brief: as §1

Measured: log2 fold change

EIF2B3 (UniProt Q9NR50)
inactive: [1] 0.033 | [2] 0.022 | [3] 0.035 | [4] 0.002 | [5] -0.013 | [6] -0.016 | [7] 0.008 | [8] -0.044 | [9] 0.025 | [10] 0.02

EIF3L (UniProt Q9Y262)
inactive: [1] -0.013 | [2] -0.084 | [3] 0.027 | [4] -0.055 | [5] -0.068 | [6] 0.019 | [7] -0.018 | [8] 0 | [9] -0.025 | [10] 0.025

EPB41 (UniProt P11171)
inactive: [1] 0.022 | [2] 0.016 | [3] 0.03 | [4] 0.011 | [5] -0.043 | [6] 0 | [7] 0.031 | [8] -0.029 | [9] -0.001 | [10] 0.048

EHD2 (UniProt Q9NZN4)
inactive: [1] 0.001 | [2] -0.013 | [3] 0.007 | [4] -0.025 | [5] -0.02 | [6] 0.092 | [7] -0.034 | [8] 0.055 | [9] -0.06 | [10] -0.051

EIF3I (UniProt Q13347)
inactive: [1] 0.027 | [2] 0.041 | [3] 0.072 | [4] 0.04 | [5] -0.041 | [6] 0.028 | [7] -0.041 | [8] -0.146 | [9] 0.031 | [10] -0.003

EEF1A1P5 (UniProt Q5VTE0)
inactive: [1] -0.005 | [2] -0.041 | [3] -0.017 | [4] -0.025 | [5] 0.013 | [6] -0.003 | [7] -0.005 | [8] 0.097 | [9] -0.036 | [10] -0.018

EIF5 (UniProt P55010)
inactive: [1] -0.021 | [2] -0.032 | [3] 0.039 | [4] -0.035 | [5] 0.003 | [6] 0.027 | [7] 0.028 | [8] 0.004 | [9] -0.026 | [10] 0.011

EOGT (UniProt Q5NDL2)
inactive: [1] -0.026 | [2] 0.053 | [3] 0.013 | [4] 0.036 | [5] 0.028 | [6] 0.056 | [7] 0.008 | [8] -0.021 | [9] 0.068 | [10] 0.007

EEF1D isoform 2 (UniProt P29692)
inactive: [1] -0.038 | [2] 0.034 | [3] 0.036 | [4] -0.042 | [5] -0.016 | [6] 0.028 | [7] 0.028 | [8] -0.011 | [9] 0.022 | [10] -0.01

EIPR1 (UniProt Q53HC9)
inactive: [1] 0.005 | [2] -0.044 | [3] 0.015 | [4] -0.021 | [5] -0.004 | [6] 0.032 | [7] 0.096 | [8] 0.039 | [9] 0.007 | [10] 0.039

EIF2S1 (UniProt P05198)
inactive: [1] -0.025 | [2] 0.145 | [3] 0.009 | [4] 0.035 | [5] -0.079 | [6] 0.06 | [7] -0.024 | [8] -0.093 | [9] -0.023 | [10] -0.049

EIF3E (UniProt P60228)
inactive: [1] 0.038 | [2] 0.099 | [3] 0.055 | [4] 0.071 | [5] -0.06 | [6] 0.035 | [7] 0.054 | [8] -0.217 | [9] 0.003 | [10] -0.122

EEF1G isoform 2 (UniProt P26641)
inactive: [1] -0.017 | [2] 0.012 | [3] 0.027 | [4] -0.014 | [5] -0.046 | [6] -0.016 | [7] 0.018 | [8] -0.083 | [9] 0.041 | [10] -0.06

EIF3K (UniProt Q9UBQ5)
inactive: [1] -0.089 | [2] -0.072 | [3] 0.113 | [4] -0.005 | [5] -0.041 | [6] -0.035 | [7] 0.001 | [8] -0.011 | [9] 0.034 | [10] -0.043

EI24 (UniProt O14681)
inactive: [1] 0.123 | [2] -0.175 | [3] -0.079 | [4] -0.117 | [5] -0.077 | [6] -0.051 | [7] -0.031 | [8] 0.096 | [9] -0.056 | [10] -0.058

ENO1 (UniProt P06733)
inactive: [1] -0.027 | [2] -0.044 | [3] -0.028 | [4] -0.014 | [5] -0.006 | [6] 0.056 | [7] 0.017 | [8] 0.055 | [9] -0.03 | [10] 0.013

EIF2B5 (UniProt Q13144)
inactive: [1] 0.035 | [2] 0.045 | [3] -0.001 | [4] 0.032 | [5] -0.127 | [6] 0.053 | [7] 0.024 | [8] -0.088 | [9] 0.041 | [10] 0.01

EIF4G1 isoform 8 (UniProt Q04637)
inactive: [1] 0.01 | [2] 0.067 | [3] -0.121 | [4] 0.09 | [5] -0.007 | [6] -0.003 | [7] -0.114 | [8] -0.369 | [9] -0.073 | [10] -0.27

ELP4 (UniProt Q96EB1)
inactive: [1] -0.026 | [2] 0.046 | [3] -0.088 | [4] -0.017 | [5] -0.036 | [6] -0.045 | [7] -0.014 | [8] 0.002 | [9] -0.001 | [10] -0.02

EIF3H (UniProt O15372)
inactive: [1] -0.003 | [2] 0.038 | [3] -0.049 | [4] 0.02 | [5] -0.033 | [6] 0.012 | [7] 0.017 | [8] -0.06 | [9] -0.005 | [10] -0.053

EIF4G2 (UniProt P78344)
inactive: [1] 0.011 | [2] 0.294 | [3] 0.146 | [4] 0.075 | [5] -0.08 | [6] -0.053 | [7] 0.046 | [8] -0.269 | [9] -0.002 | [10] -0.137

EIF3D (UniProt O15371)
inactive: [1] 0.105 | [2] 0.156 | [3] 0.101 | [4] 0.062 | [5] -0.036 | [6] 0.035 | [7] 0.029 | [8] -0.275 | [9] 0.081 | [10] -0.067

EIF4EBP1 (UniProt Q13541)
inactive: [1] -0.062 | [2] 0.053 | [3] -0.047 | [4] 0.012 | [5] -0.105 | [6] -0.048 | [7] 0.006 | [8] 0.119 | [9] -0.192 | [10] -0.085

EIF4H (UniProt Q15056)
inactive: [1] 0.033 | [2] -0.014 | [3] -0.002 | [4] 0.03 | [5] -0.007 | [6] -0.022 | [7] 0.038 | [8] -0.041 | [9] -0.012 | [10] -0.014

EIF2B4 isoform 2 (UniProt Q9UI10)
inactive: [1] 0.013 | [2] 0.068 | [3] 0.076 | [4] 0.042 | [5] -0.081 | [6] 0.017 | [7] 0.057 | [8] -0.106 | [9] -0.02 | [10] -0.033

EIF4EBP2 (UniProt Q13542)
inactive: [1] -0.063 | [2] 0.05 | [3] -0.167 | [4] -0.01 | [5] 0.016 | [6] -0.15 | [7] 0.066 | [8] 0.204 | [9] -0.1 | [10] 0.035

Reprinted from the listing (2 entries):
EIF3E (UniProt P60228)
inactive: [1] 0.038 | [2] 0.099 | [3] 0.055 | [4] 0.071 | [5] -0.06 | [6] 0.035 | [7] 0.054 | [8] -0.217 | [9] 0.003 | [10] -0.122

EEF1G isoform 2 (UniProt P26641)
inactive: [1] -0.017 | [2] 0.012 | [3] 0.027 | [4] -0.014 | [5] -0.046 | [6] -0.016 | [7] 0.018 | [8] -0.083 | [9] 0.041 | [10] -0.06

(continued)

EIF4B (UniProt P23588)
inactive: [1] 0.02 | [2] -0.03 | [3] -0.014 | [4] 0.061 | [5] -0.028 | [6] 0.012 | [7] 0.009 | [8] 0.028 | [9] -0.001 | [10] -0.017

EIF4A1 (UniProt P60842)
inactive: [1] 0.061 | [2] -0.11 | [3] -0.009 | [4] -0.075 | [5] -0.004 | [6] -0.01 | [7] 0.004 | [8] -0.027 | [9] 0.016 | [10] -0.088

ENOSF1 (UniProt Q7L5Y1)
inactive: [1] -0.024 | [2] 0.121 | [3] 0.013 | [4] 0.028 | [5] 0 | [6] -0.007 | [7] 0.035 | [8] 0.06 | [9] 0 | [10] 0.183
